For test [1], the system named is Jurkat cells. Description: Intracellular calcium assay. The format is cell-based, human. Particulars: read-out: IC50, PMA/PHA-induced increase in [Ca2+]i, Fluo-4. In general terms: Calcium assays in cells follow changes in intracellular calcium, usually with a dye or a luminescent sensor.
The test system of test [2] is Jurkat cells. Description: Automated patch-clamp electrophysiology for Jurkat cells. The format is cell-based, human. Particulars: read-out: EC50, Jurkat cell membrane currents; agonist alone, -80 mV. (In general: Patch clamp records ionic current or voltage across a cell membrane.)

The structures appear in SMILES notation.

As usually defined, the EC50 is the midpoint of the concentration-response curve.

Consider `NCCCC(=O)O` [GABA], for which the IC50 in test [1] is 74 ± 3 mM. In addition, the EC50 in test [2] is 0.0031 mM.

The record behind these values is PMC4899155 (Molecular pharmaceutics, 2016).
